The values that follow are results of earlier work, collected in patent US20100261711A1, “SELECTIVE ANTICONVULSANT AGENTS AND THEIR USES” (WiSys Technology Foundation, priority 2009, published 2010).

Amino acid sequences for entries named in this document (tags omitted). Residues count along the entry.
UniProt P18507, 40-475: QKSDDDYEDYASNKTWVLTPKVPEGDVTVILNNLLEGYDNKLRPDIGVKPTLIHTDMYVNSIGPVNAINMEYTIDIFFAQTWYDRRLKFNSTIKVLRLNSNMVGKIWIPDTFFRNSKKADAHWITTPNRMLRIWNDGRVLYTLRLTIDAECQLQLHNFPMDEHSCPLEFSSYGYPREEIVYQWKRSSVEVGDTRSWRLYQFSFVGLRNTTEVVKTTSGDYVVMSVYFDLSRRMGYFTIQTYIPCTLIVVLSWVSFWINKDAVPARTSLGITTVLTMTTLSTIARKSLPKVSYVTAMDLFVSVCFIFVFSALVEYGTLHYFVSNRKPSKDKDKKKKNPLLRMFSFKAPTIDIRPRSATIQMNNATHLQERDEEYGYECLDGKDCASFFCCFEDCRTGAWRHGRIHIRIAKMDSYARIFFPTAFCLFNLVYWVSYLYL
UniProt P31644, 32-462: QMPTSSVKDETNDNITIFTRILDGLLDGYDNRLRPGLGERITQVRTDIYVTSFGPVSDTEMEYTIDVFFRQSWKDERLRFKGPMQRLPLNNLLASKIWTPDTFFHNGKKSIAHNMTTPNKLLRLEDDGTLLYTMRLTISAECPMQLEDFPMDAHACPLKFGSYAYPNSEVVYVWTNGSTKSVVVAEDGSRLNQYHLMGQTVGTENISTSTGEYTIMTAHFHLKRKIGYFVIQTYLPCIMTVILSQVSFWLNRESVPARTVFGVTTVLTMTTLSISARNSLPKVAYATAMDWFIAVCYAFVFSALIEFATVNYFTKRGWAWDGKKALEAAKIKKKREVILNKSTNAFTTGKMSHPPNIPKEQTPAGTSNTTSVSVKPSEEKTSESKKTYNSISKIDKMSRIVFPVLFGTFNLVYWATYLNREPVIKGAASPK

Bounds are passed on as bounds.

The target in the data set is GABAA/α5 receptors (Homo sapiens, UniProt P18507+P31644). The conditions noted are these: read-out: Ki GABAA/α5; Huang et al., J. Med. Chem. 2000, 43, 71-95; cited from earlier work.

With `CN1C(=O)CN=C(c2ccccc2)c2cc(Cl)ccc21` [Diazepam, reference compound], the Ki was less than 25 nM.
